Data source: PubChem BioAssay AID1259308 (NCATS, 2017)

- Screen: 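Genes whose loss raises luciferase production in HEK293 cells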 (primary screen)
- Cells: human HEK293 embryonic kidney cells stably expressing firefly luciferase (HEK-CMV-Luc2-Hygro)
- Reagent: single siRNA against human genes, 0.8 pmol siRNA per well
- Timing: 72 h
- Measurement: 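Reporter luminescence and viable-cell signal on separate replicate plates, given as percent of non-targeting control and median/MAD z-scores, plus per-cell luciferase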
- Scale: total luciferase, z-score: higher = more reporter protein produced
- Rule for the call: 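An siRNA counts as active if its total luciferase robust z-score exceeds 3; genes with two or more such siRNAs out of three were retested with fresh siRNAs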
- Calls: active = raised luciferase; inactive = no rise
This is a random part of about 59,000 reagents tested. Of all reagents, about 1,510 (2.6%) got an active call. 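Calls use total luciferase alone and ignore viability, so some active siRNAs may act by altering cell number.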 A number with no mark means an inactive call. The numbers tell different reagents against one gene apart. Not all columns of the deposit are shown.

total luciferase, z-score, by gene and reagent
ISG20: #1 -0.874; #2 0.24; #3 0.397
KIF12: #1 1.58; #2 0.0815; #3 -0.426
GMIP: #1 0.228; #2 0.0642; #3 -0.562
MIA2: #1 0.655; #2 -0.91; #3 -0.354; #4 0.135; #5 3.71 (active); #6 -2.17
SLC7A2: #1 -0.362; #2 0.94; #3 -0.301
RAB28: #1 -0.0525; #2 2.26; #3 1.55
GAS8-AS1: #1 0.434; #2 0.482; #3 -0.13
NSMCE1: #1 0.446; #2 -0.67; #3 0.634
TBC1D4: #1 -1.92; #2 0.0259; #3 -0.758
CAMK2B: #1 0.91; #2 0.454; #3 0.437
CENPB: #1 -1.03; #2 0.213; #3 0.494
NKAIN4: #1 -0.212; #2 -0.0473; #3 0.209
COLGALT2: #1 1.1; #2 0.391; #3 1.01
MIER3: #1 -0.368; #2 0.000963; #3 -0.0276
SLC36A2: #1 -0.032; #2 -0.604; #3 -0.0474
H4C1: #1 0.0602; #2 -0.14; #3 0.208
PITX2: #1 -1.16; #2 4.59 (active); #3 -0.818
CCL8: #1 -0.958; #2 -0.911; #3 0.772
IFT140: #1 1.53; #2 0.183; #3 -0.521
TNKS: #1 0.114; #2 -0.0954; #3 0.848
DNAJC30: #1 -1.32; #2 0.312; #3 -0.274
ARL6IP1: #1 -2.02; #2 -1.7; #3 -1.73
RPP38: #1 0.777; #2 -1.32; #3 0.758
CHRD: #1 -0.276; #2 -0.523; #3 -0.884

Looked up above:
Entry for COLGALT2 #1 in “total luciferase, z-score”: 1.1
For “total luciferase, z-score”, CHRD #3 has -0.884
TBC1D4 #1, total luciferase, z-score → -1.92
Entry of SLC36A2 #1 under “total luciferase, z-score”: -0.032
Entry for IFT140 #1 in “total luciferase, z-score”: 1.53
For “total luciferase, z-score”, MIA2 #6 has -2.17
